About 210 (0.4%) of roughly 52,000 sequences were called active.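 The calls were made as follows: active = gene whose silencing raises cell survival under the drug, median off-target-corrected z-score across its silencing RNAs 2 or more; inactive = the rest.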 The list shows a part of the results.

The nature of the experiment: Resistance to Poly (ADP-Ribose) Polymerase inhibitor: Gene Identification via Genome-wide siRNA Screen. Particulars: mouse BRCA2 R2336H ES cells, olaparib, CellTiter-Glo viability; stronger effect = higher value. In a few lines:
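Mouse BRCA2 R2336H ES cells were reverse-transfected with siRNA (20 nM final), treated at 48 h with 500 nM olaparib, and read by CellTiter-Glo after 72 h. Scores: MAD-based z per siRNA, median per gene, seed off-target correction.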
On to GGAGAGAAAUUUGACACUCTT against Mgrn1, for which the z-score is inactive: 1.23. To GCGAUGGCUAUUUUGAUUGTT against Nfkbib belongs inactive: 0.614; to “GGCUGCCUGUGCUAAAAUGTT against 1810017N16Rik”, inactive: -1.14; to GGAUCUGACAUGUUGUAUATT against Fshr, inactive: 0.124. To GGCUACAGCCGUCAAAGAUTT against R74862 belongs inactive: 0.545; to “GGUAGAUUAGCUGAUCCCATT against 2310057J18Rik”, inactive: -1.51.

On to GGCAGUUUGUUAAUGAAUGTT against Pcsk1, for which the z-score is inactive: 0.648. As to “GCUACAUUCAGGAACCACATT against 2810449C13Rik”, the z-score is inactive: -1.38.

As for “GGAUUUGGUGAACAUCCGUTT against 0610039J04Rik”, the z-score was inactive: -0.0216. In the case of GCCAAUGAGAGUAGGAAAGTT against Elovl3, the z-score was inactive: 0.627. In the case of GGAAGCUAAGAAGAUGGAGTT against Ripk4, the z-score was inactive: -0.347.

For CCUAAAGCUUGGCAACCCATT against Vapb, the z-score was inactive: 1.08. Consider GGUGCUGAAGAUGCUGACGTT against Zfp503, for which the z-score was inactive: 1.33. As for GGCUUUUUCCACAUGUGCCTT against Olfr514, the figure is inactive: -0.203; as for “GGAGUGUUACUAGAUGUCCTT against 9830002I17Rik”, inactive: -2.51. Take CGUCAACAGGUUUGCUGUGTT against Gbx1: the z-score was inactive: 1.17. For the sequence “GGGAAAAAGGAGAACUUCUTT against 1700026D08Rik”, the z-score is inactive: 0.955. As for GGAGAAGCAUAAAACAGUUTT against Zfpn1a5, the figure is inactive: -1.09; as for “GCAUUCUAAUCUCUCAUAATT against 2300006N05Rik”, inactive: 0.59; as for CGUGAGAGAUACUUUUUAGTT against Rps6ka5, inactive: 0.53. As for “CCUACUUCCCGUCAUUCCUTT against 1110039B18Rik”, the z-score was inactive: 0.3. CGUUUGCUGGGUAUCAAUATT against Aldrl6: the z-score was inactive: 0.592. Regarding CCAACAGGCAUAUGCAUAUTT against Ddx5, the z-score is inactive: -1.27. For GGCCUCAGCUCACAACAAATT against Sf3b4, the z-score is inactive: -3.13. On to GGAACCACUUAUUUAUUUCTT against Gba2, for which the z-score is inactive: 0.94. As for GGUAGUGACUGUGCUAUCGTT against Gpr35, the z-score is inactive: -2.28. With GGUGGUAGUUAAUAAAGCUTT against Catnb, the z-score was inactive: -1.09.

Regarding GGUGGAACAGGCAGAAUUCTT against Syn2, the z-score is inactive: 1.49. As for GGUGGCCGUGAAGAAGAUCTT against Mapk4, the figure is inactive: 0.23; as for GCACUCCUGUCAUUCGUGUTT against Gnaq, inactive: 1.13; as for GGAAGAAGCUAGAACAGGATT against Add2, inactive: -0.877. For the sequence CCCGAUUCCCACUUAAAACTT against Pcdhga3, the z-score is inactive: 0.672.

In the case of GGAGAAAGAAGAGCUAUGATT against Pla2g12b, the z-score was inactive: -0.386. For “GGAACGAGACAGAAUGGUCTT against 4921505C17Rik”, the z-score was inactive: -0.41. For the sequence CGGAGUUGGAUGUUAUUCUTT against Mlf1ip, the z-score was inactive: -1.07. On to GACCCUUGUUCUUAGCCUUTT against Defcr-rs2, for which the z-score was inactive: -0.384. As for “GGUAUUAGUCCACUUAGGATT against 2810021B07Rik”, the figure is inactive: 0.0144; as for CACGGUACAGUACGAUUGATT against Dscr1l1, inactive: 0.0751; as for GGAAUGUCCACAUUUUGUATT against Tigd5, inactive: 0.00592. To CCACUGACAUUUUUCAAACTT against Tagln3 belongs inactive: 1.01. As for CGGGUAAUAUUCUUUUCAATT against Rex2, the figure is inactive: -0.00137; as for “GGAAGUUUACAGCUUUGAATT against 4933417K05Rik”, inactive: 1.21. With GGAGCGUACCAUGAUCGAUTT against Parvb, the z-score was inactive: -0.584. In the case of CGAAGACACGCUACGAAGATT against Minpp1, the z-score is inactive: 0.934. As for “GGUGUUCCAGUUCUCAAAGTT against 2210409B01Rik”, the z-score was inactive: 0.665. On to CCCUCACUAUAACACUAUUTT against Six5, for which the z-score was inactive: -0.0485. GCUGAUAUGCACAAGAUGGTT against Gps1: the z-score is inactive: -2.63.

On to GCCUUAAGUGUUCAUGUAATT against Vhlh, for which the z-score is inactive: 2.01. On to GGCCCUUAAGAGAACUCUUTT against Olfr1046, for which the z-score was inactive: 1.31.

Regarding “CCCGAAUGCUGCUGUAUACTT against D430018P08”, the z-score is inactive: -1.3. For ACCGUUUUUAAACCUCUGATT against Ociad2, the z-score was inactive: -0.58. Turning to GGGAUAGCUCUAGUAUAUUTT against Slc24a2, the z-score was inactive: -0.462. For the sequence GGAAAGGUUGUUAUUGAUGTT against Psmd14, the z-score is inactive: 0.982.

Turning to GCACAUGGGAGACUAUGAATT against Efcbp2, the z-score is inactive: 0.443. Take “GGACUUUAAGUGAGAAUCUTT against B630019A10Rik”: the z-score is inactive: -0.812. With GGACUCUUUCAUAAGCAUATT against Etv5, the z-score was inactive: 4.3.

Regarding CGCGUAACUCCUAUGUAGUTT against G6pd2, the z-score was inactive: 0.725.

Turning to “GGGUGACGAUAUCGAAAUGTT against 2900093B09Rik”, the z-score was inactive: -0.499. As to GGUCCAAGAGGAAAGACAATT against Adarb2, the z-score was inactive: 0.481. On to GCACGUCAGAAUCUCCAGATT against Pln, for which the z-score was inactive: -0.75.

As to GGCCAAAUAGCACUAAAGUTT against Ttll4, the z-score was inactive: 0.474.

As to “CCUGAUAGGCCUAAACCUUTT against 5033425B17Rik”, the z-score is inactive: 0.762. As to CCUCCUUAUCCAUAAUAUUTT against Slc35a3, the z-score is inactive: 0.771.

Regarding GGACUCCUAUGUAGGUGAUTT against Actc1, the z-score is inactive: -0.873.

As for GGAUAGAUCCUUGAAAAAGTT against Tmprss7, the z-score is inactive: -0.15.

For “GGUUACCUGGGCAUGGGAATT against 4732465J04Rik”, the z-score was inactive: -2.24. As for GCAACACGGCGGAAUAAAGTT against ORF19, the figure is inactive: -1.47; as for GCCUGUAAAGGUGGCUAAGTT against Narfl, inactive: -2.5. Regarding CGGUUAAAUGAUUUUGCUATT against Cox5a, the z-score is inactive: 0.302. For the sequence GGCAUUUUCAUGUGCUUUGTT against Wdhd1, the z-score is inactive: -0.517.

In the case of CCAUGUUCCUGGCAUAUAUTT against Opn4, the z-score is inactive: -0.921.

Consider “GGAGAACAGCAGCCUUUGUTT against 1100001D10Rik”, for which the z-score was inactive: -3.17. To GGUCGGCAAUAUCCUAUUUTT against BC017545 belongs inactive: -1.57; to GGGUUGUGGCUGCUACUAUTT against Pira2, inactive: -0.681.

In the case of “CCAGACUCCUCUUAGAAGGTT against B230218L05Rik”, the z-score is inactive: 1.12. With GGAAAUUCAAAAGACGCAGTT against Orm2, the z-score was inactive: 0.966.

“CGAGCUUCGGAGGAAGUGATT against B130055L09Rik”: the z-score was inactive: -0.998. “GGAACUUGAAAUCGUAAUUTT against 2010012C16Rik”: the z-score was inactive: -0.433. As to GCAAGCCAAAUUGUCCCGGTT against Usp39, the z-score is inactive: 1.89. As to GGUAUUGAUGCCAAAUUAATT against Plekha5, the z-score is inactive: 0.35.

As to GGAACAAAUUAGAAUAGCUTT against Rnf11, the z-score is inactive: 0.416. GGACAACAUUGACAAGUUCTT against Clcn7: the z-score is inactive: -0.436.

On to GGUCUUUUGGAAUCUCUGGTT against Crip3, for which the z-score was active: 1.26. Regarding “GGCCAGUUACUUUCUGAAATT against 1110019I14Rik”, the z-score was inactive: 1.21.

Take GGAGGUUCGGCUAAAACUGTT against BC005624: the z-score is inactive: -0.664. To “GGAUGUGACAUGAAUCCUGTT against 8430438L13Rik” belongs inactive: 1.24. As for “GGAGUUAAAACCAUCGUGATT against D16Ertd472e”, the figure is inactive: 0.636; as for GGACGAAUUUGAGGAAAUATT against Lrp4, inactive: -1.81. Regarding GUAACCAGUUCUUCUCUGUTT against V1rc18, the z-score is inactive: -1.61. For the sequence GGCAACUGAAAUGUUUGUUTT against Rap2c, the z-score was inactive: 0.0562. As for GGAGAGGUAGACUUCCUGUTT against BC030396, the figure is inactive: 1.89; as for GGAAAAUCUUCUAUCGAACTT against BC012016, inactive: -0.0839. With GGGAAAUAACGAAUUUCAGTT against Zfp292, the z-score is inactive: -0.131. GGAUGCAAUGGCUGAGAAGTT against Pth: the z-score was inactive: -1.34. For “CCAUUCACAUUGUGUCAAATT against 2310002B14Rik”, the z-score is inactive: 0.035. For the sequence GGAAUUUGUGAUCAGCGACTT against Cotl1, the z-score is inactive: 0.356. In the case of GGAGCUAUGCAGAGGAGUATT against BC019755, the z-score was inactive: 0.432. As for GCUCUUCAACGAUUGUGGGTT against Clcn4-2, the z-score is inactive: 0.589.

“GCACAUAGCCGACACCUACTT against 2700067E09Rik”: the z-score is inactive: 1.06. Regarding GCGCGCAGUGAACGAAAAATT against Nmyc1, the z-score is inactive: -0.186. As to GGUGAAGUAUGGCAACAUGTT against Unc93b, the z-score is inactive: -0.24. Regarding CCGCCAUAGGCUCCUUCAATT against Acat3, the z-score was inactive: 0.0301. For the sequence “GUACUCUUCCUCACUGGGUTT against A230078I05Rik”, the z-score is inactive: 0.861.

The record behind these values is PubChem BioAssay AID1347423 (Functional Genomics Laboratory (NCATS/FGL), 2020).
